PubChem BioAssay AID504804 | Drosophila RNAi Screening Center – 2011
In all, the deposit lists about 19,000 reagents; below is a random part of those with a known target gene and a result. Of all reagents, 47 (0.25%) got an active call. 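Signals are raw, not normalised; exact z-scores behind calls not deposited; actives needed confirmation, so some wells reaching 2 SD are inactive.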 Entries without a mark were called inactive. Names joined by + are all predicted targets of the reagent.

- Test: 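dsRNAs that improve Kc cell survival under doxorubicin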 (primary screen)
- Cells: Drosophila Kc cells
- Knock-down reagent: long dsRNA against Drosophila genes, 0.5 µg dsRNA per well
- Duration: 96 h (48 h knock-down, then 48 h drug)
- Challenge: doxorubicin 5 µg/ml for 48 h, added 48 h after dsRNA
- Read-out: 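Viability measured as cellular ATP by luminescence after 48 h knock-down then 48 h doxorubicin at 5 µg/ml; unnormalised plate counts for each replicate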
- Reading the numbers: raw ATP luminescence: higher = more viable cells, protection from doxorubicin
- Active means: 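Active when both duplicate wells lie at least 2 SD above the plate mean and protection is confirmed by rescreening and independent dsRNAs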

Kebab [DRSC00827] — raw ATP luminescence, replicate 1 = 1.12e5; raw ATP luminescence, replicate 2 = 82040
CG9886 [DRSC00732] — raw ATP luminescence, replicate 1 = 1.01e5; raw ATP luminescence, replicate 2 = 74210
GlcAT-P [DRSC10603] — raw ATP luminescence, replicate 1 = 39407; raw ATP luminescence, replicate 2 = 41117
GlcAT-P [DRSC10604] — raw ATP luminescence, replicate 1 = 51273; raw ATP luminescence, replicate 2 = 59047
CG13285 [DRSC09960] — raw ATP luminescence, replicate 1 = 65507; raw ATP luminescence, replicate 2 = 64047
aqrs [DRSC14724] — raw ATP luminescence, replicate 1 = 50580; raw ATP luminescence, replicate 2 = 30050
CG32027 (retired record) [DRSC09571] — raw ATP luminescence, replicate 1 = 81777; raw ATP luminescence, replicate 2 = 78773
CG15263 [DRSC01974] — raw ATP luminescence, replicate 1 = 75450; raw ATP luminescence, replicate 2 = 74487
Cyp4d1 [DRSC17694] — raw ATP luminescence, replicate 1 = 2.28e5; raw ATP luminescence, replicate 2 = 2.28e5
Cyp4d1 [DRSC18456] — raw ATP luminescence, replicate 1 = 72700; raw ATP luminescence, replicate 2 = 72940
chn [DRSC06086] — SD above plate mean = 2 to 3 SD above plate mean (active); raw ATP luminescence, replicate 1 = 1.02e5; raw ATP luminescence, replicate 2 = 1.00e5
Prtl99C [DRSC15049] — raw ATP luminescence, replicate 1 = 55330; raw ATP luminescence, replicate 2 = 46750
Rpn10 [DRSC11876] — raw ATP luminescence, replicate 1 = 56083; raw ATP luminescence, replicate 2 = 62963
nes [DRSC11375] — raw ATP luminescence, replicate 1 = 60280; raw ATP luminescence, replicate 2 = 62480
TfIIB [DRSC03454] — raw ATP luminescence, replicate 1 = 24893; raw ATP luminescence, replicate 2 = 35353
CG4230 [DRSC02740] — raw ATP luminescence, replicate 1 = 1.13e5; raw ATP luminescence, replicate 2 = 60873
Gr98d [DRSC14571] — raw ATP luminescence, replicate 1 = 42210; raw ATP luminescence, replicate 2 = 51610
MBD-like [DRSC16996] — raw ATP luminescence, replicate 1 = 59313; raw ATP luminescence, replicate 2 = 61357
CG5890 [DRSC15909] — raw ATP luminescence, replicate 1 = 68230; raw ATP luminescence, replicate 2 = 76930
His4:CG33883 + His4:CG33889 + His4:CG33899 + 20 more [DRSC21268] — raw ATP luminescence, replicate 1 = 2.10e5; raw ATP luminescence, replicate 2 = 2.09e5
noc [DRSC03580] — raw ATP luminescence, replicate 1 = 1.18e5; raw ATP luminescence, replicate 2 = 70737
CG2816 [DRSC00539] — raw ATP luminescence, replicate 1 = 19863; raw ATP luminescence, replicate 2 = 17663
Egfr [DRSC03871] — raw ATP luminescence, replicate 1 = 71620; raw ATP luminescence, replicate 2 = 83327
Egfr [DRSC04613] — raw ATP luminescence, replicate 1 = 78003; raw ATP luminescence, replicate 2 = 61770
CG16970 (retired record) [DRSC01310] — raw ATP luminescence, replicate 1 = 2.95e5; raw ATP luminescence, replicate 2 = 3.15e5
CG16970 (retired record) [DRSC02549] — raw ATP luminescence, replicate 1 = 32227; raw ATP luminescence, replicate 2 = 49773
CG4744 [DRSC06887] — raw ATP luminescence, replicate 1 = 64557; raw ATP luminescence, replicate 2 = 76110
CG10254 [DRSC14153] — raw ATP luminescence, replicate 1 = 30163; raw ATP luminescence, replicate 2 = 45250
St3 [DRSC04505] — raw ATP luminescence, replicate 1 = 78750; raw ATP luminescence, replicate 2 = 64333
CG12480 [DRSC19460] — raw ATP luminescence, replicate 1 = 3.53e5; raw ATP luminescence, replicate 2 = 3.33e5
CG31637 [DRSC02270] — raw ATP luminescence, replicate 1 = 1.38e5; raw ATP luminescence, replicate 2 = 86407
CG31637 [DRSC03263] — raw ATP luminescence, replicate 1 = 22743; raw ATP luminescence, replicate 2 = 20127
CG31406 [DRSC12777] — raw ATP luminescence, replicate 1 = 1.02e5; raw ATP luminescence, replicate 2 = 63927
Cpr78Ca [DRSC11651] — raw ATP luminescence, replicate 1 = 60997; raw ATP luminescence, replicate 2 = 61153
CG18233 [DRSC10308] — raw ATP luminescence, replicate 1 = 54710; raw ATP luminescence, replicate 2 = 41220
saturn [DRSC09303] — raw ATP luminescence, replicate 1 = 72773; raw ATP luminescence, replicate 2 = 76947
